Library screening results

Sequences of proteins named here, by UniProt entry; tags and fusion partners are left off.
UniProt E9BF75, entry or part of it: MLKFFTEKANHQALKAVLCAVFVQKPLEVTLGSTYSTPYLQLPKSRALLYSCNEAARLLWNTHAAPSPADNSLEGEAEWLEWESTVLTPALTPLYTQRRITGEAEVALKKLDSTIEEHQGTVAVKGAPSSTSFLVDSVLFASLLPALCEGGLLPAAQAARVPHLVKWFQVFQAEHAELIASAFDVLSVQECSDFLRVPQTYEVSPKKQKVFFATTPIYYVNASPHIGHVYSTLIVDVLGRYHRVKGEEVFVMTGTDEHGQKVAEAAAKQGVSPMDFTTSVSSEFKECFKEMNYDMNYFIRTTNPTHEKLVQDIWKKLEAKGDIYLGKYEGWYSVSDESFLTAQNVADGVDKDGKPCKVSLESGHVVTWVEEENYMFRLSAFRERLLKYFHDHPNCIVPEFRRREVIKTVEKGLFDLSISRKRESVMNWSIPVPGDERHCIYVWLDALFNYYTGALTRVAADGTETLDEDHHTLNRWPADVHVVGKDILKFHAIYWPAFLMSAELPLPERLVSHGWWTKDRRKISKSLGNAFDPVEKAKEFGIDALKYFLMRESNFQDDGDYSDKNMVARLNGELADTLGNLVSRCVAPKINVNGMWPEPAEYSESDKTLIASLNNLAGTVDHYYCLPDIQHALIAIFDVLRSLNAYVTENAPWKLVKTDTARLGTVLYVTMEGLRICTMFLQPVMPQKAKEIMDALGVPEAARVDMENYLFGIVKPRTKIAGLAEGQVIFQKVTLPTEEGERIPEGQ

From ChEMBL document CHEMBL3988442, “University of Dundee, Small-Polar-MMV Screening Library” (2021).

A: 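Assay on Mycobacterium tuberculosis, filed only as a heat shock assay from Cornell; the read-out is not stated. The concentration is filed as 10 mM, unlikely as a test dose, so the dose is not known. The record gives no direction; compounds that gave an IC50 in retests scored well above the rest, so higher reads as stronger inhibition. Size under these conditions: about 69,000 compounds, about 930 of them at 50% or above in at least one test.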
B: 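Methionyl-tRNA synthetase (putative), Leishmania donovani (UniProt E9BF75). Primary screen of methionyl-tRNA synthetase; the read-out is not stated. The test concentration is not given. Values are per cent inhibition. Size under these conditions: about 68,000 compounds, about 24 of them at 50% or above in at least one test.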
C: 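Whole-cell assay for inhibitors of Mycobacterium tuberculosis growth, labelled Cornell in the record; the read-out is not stated. The concentration is filed as 10 mM, unlikely as a test dose, so the dose is not known. The record gives no direction; compounds strong in two other growth screens of this library score well above the rest, so higher reads as stronger inhibition. Size under these conditions: about 53,000 compounds, about 900 of them at 50% or above in at least one test.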

Results are percentages, as filed.
The record does not define 0% and 100%; most values in the screen are far below 50% and negative numbers occur (in some assays of this library far below -100).
Compounds were drawn at random from those tested, without regard to their results.

[H][C@]12CC[C@]([H])(CN(C(=O)N(C)C)C1)N(C(=O)c1c(Cl)cccc1Cl)C2 gave A: -12.2%; C: 3.535%.
CC(C)c1nc(CN(C)C(=O)c2ccc3c(c2)OCO3)cs1 gave A: 23.02%; B: 10.74%; C: 10.11%.
Cc1cccc(CN2CC3(CCN(S(=O)(=O)C4CC4)CC3)OCC2=O)n1.O=C(O)C(F)(F)F gave A: -0.1847%.
Cn1ncc2c(=O)[nH]c(CN3CCCC3CC3CCCCC3)nc21 (stereo not given) gave A: 17.43%; B: 14.17%; C: 7.934%.
CN1CCC2(CC1)CNC(=O)c1ccccc1O2 gave A: -11.26%; B: 10.62%; C: -3.092%.
O=C1CCSCC(C(=O)N2CCC3(CC2)OCCO3)N1 (stereo not given) gave A: -20.2%; B: 17.53%; C: 16.61%.
Cn1ccnc1CN1CCC(F)(F)C2(CCN(c3cccnc3)C2)C1.O=C(O)C(F)(F)F.O=C(O)C(F)(F)F (stereo not given) gave A: 25.04%; C: -13.38%.
O=S(=O)(C1CC1)N1CCC2(CC1)CC(Oc1cccnc1)CO2 (stereo not given) gave B: 14.16%.
CN1CCCN(C(=O)c2csc3nc(-c4ccc(Cl)cc4)cn23)CC1 gave A: 18.72%; B: 18.87%; C: -8.242%.
CC(C)NC(=O)CC1COC2(CCN(Cc3cccnc3)CC2)C1 (stereo not given) gave B: 16.35%.
[H][C@]12CCCCN1CCC[C@H]2CN(C)Cc1nnc(CC)o1 gave A: -15.59%.
CC(C)Nc1nc2c(c(NC3CC3)n1)CCN(C(=O)C1CCOC1)CC2 (stereo not given) gave A: -16.48%; B: 10.27%; C: 4.135%.
COCC1COCCC12CCN(CCc1ccccc1)CC2 (stereo not given) gave B: 10.48%.
CCn1ncc(S(=O)(=O)N2CCCC3(CC=CNC3=O)C2)c1C (stereo not given) gave A: 23.34%; B: 15.22%; C: 6.66%.
O=S(=O)(c1ccc(Cl)cc1)N1CCc2nc(C3CCNCC3)ncc2C1 gave B: 27.08%.
O=C(C1CC1)N1CCN2C[C@@H](CO)[C@H](c3ccccc3)[C@H]2C1 gave B: 10.68%.
CSCc1ccc(CNC2CCCN(c3ccc(C)nn3)C2)o1 (stereo not given) gave A: -27.62%; B: 24.04%.
CNC(=O)[C@@H](c1ccccc1F)N1CCC[C@H]1C(=O)NC1CC1.Cl gave A: -3.002%; C: 14.1%.
CN(C)c1cc(C(=O)NC2(c3cccc(F)c3)CCOCC2)ccn1 gave A: 4.859%; B: 7.453%.
[H][C@@]12CCN(C(=O)c3cccnc3)C[C@]1([H])[C@@H](CNS(C)(=O)=O)OC2 gave A: 5.325%; C: 7.568%.
CC(C)NC(=O)NC(C)c1nc(-c2ccccc2)cs1 (stereo not given) gave A: 16.17%; B: 8.333%.
[H][C@@]12CCN(Cc3cc(C)on3)C[C@@]1([H])O[C@H](c1nccs1)C2 gave A: -37.78%; C: 18.82%.
c1cncc(OC[C@@]23CCC[C@@H]2CN(C2CCOCC2)C3)c1 gave B: 13.19%.
CCN(CC)C(=O)[C@@H]1C[C@@H](NC(=O)c2ccoc2)CN1C gave A: -15.23%; B: 2.721%; C: 15.25%.
CCN1C(=O)CC(c2cnn(C)c2)C12CCN(C(=O)C1CC=CC1)CC2 (stereo not given) gave A: -14.22%; B: 19.3%; C: -27.66%.
CS(=O)(=O)N1CCCC12CCCN(S(=O)(=O)c1cccc(F)c1)C2 (stereo not given) gave A: -30.68%; B: 14.72%.
CN1CCCC(C(=O)N2CCC(Oc3ncccn3)CC2)C1 (stereo not given) gave A: 4.939%; B: 11.51%; C: 9.676%.
CS(=O)(=O)NC1CCCN(C(=O)NCc2cccnc2)C1 (stereo not given) gave A: 5.095%; B: 15.97%.
COC(=O)N1CCC(CNS(=O)(=O)c2cnn(C)c2)CC1 gave A: -6.291%; B: 9.317%; C: -36.41%.
O=C(O)C(F)(F)F.[H][C@@]12CCC(=O)N(CCOC)[C@@]1([H])CCN2Cc1c(C)noc1C gave A: 7.581%; C: 15.17%.